Results from US20250382362A1 (UNIVERSIT TSKLINIKUM REGENSBURG, published 2025).
These are yes or no findings as the source states them, for the method shown. Some results given as binding are weak or reduced against the parent protein; the word gives no strength.

Chains of the proteins cited; added tags and fusions are not shown. Lines headed by an entry give the natural chain unless they say otherwise; changes in a name come on top.
UniProt P08700: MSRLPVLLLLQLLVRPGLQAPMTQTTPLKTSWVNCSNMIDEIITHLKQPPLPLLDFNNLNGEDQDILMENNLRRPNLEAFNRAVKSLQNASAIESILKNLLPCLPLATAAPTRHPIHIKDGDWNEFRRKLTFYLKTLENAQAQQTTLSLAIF

Target: biotinylated IL-3 (Homo sapiens (Human)) (UniProt P08700)
Test: flow cytometry, antibody dilutions preincubated with biotinylated IL-3, then basophils in EDTA blood

| binding | Binder |
| --- | --- |
| binds | GRT002-H16L2 (antibody, human IgG1, kappa, V domains shown, IgG1 of the G1m3 (heavy chain) and KM3 (light chain) allotype, lacks the C-terminal lysine; also called HC16 × LC2; humanized derivative of antibody P8C11) VH: QVQLVQSGAEVKKPGASVKVSCKGSGFTFTDYALHWVRQAPGQRLEWMGLISTYYGDTTYNQRFKGRVTMTVDKSTSTAYMELSSLRSEDTAVYYCVITTVAGTDAMDYWGQGTLVTVSS VL: DIQMTQSPSSLSASVGDRVTITCHASQNINVWLSWYQQKPGKAPKLLIYKASNLHTGVPSRFSGSGSGTDFTFTISSLQPEDIATYYCQQGYSYPYTFGGGTKLEIKR |
| binds | Chimeric P8C11 (antibody, V domains shown) VH: QVQLQQSGAEMVRPGVSVKIACKGSGFTFTDYALHWVKQSHAKSLEWIGLISTYYGDTTYNQRFKGKATMTVDKSSSTAYMELARLTSEDSAIYYCVITTVAGTDAMDYWGQGTSVTVSS VL: DIQMNQSPSSLSASLGDTITITCHASQNINVWLSWYQQKPGNIPKLLIYKASNLHTGVPSRFSGSGSGTGFTLTISSLQPEDIATYYCQQGYSYPYTFGGGTKLEIK |
